Test results published in publication doi:10.1101/2020.05.02.074187 (bioRxiv, 2020).
Results are given in words; binding and its absence hold for the method and conditions named. Some entries that bind do so weakly or less than the wild type.

Target: E-cadherin endogenously expressed on the apical surface of MDCK cells (canine (endogenous in MDCK)) (UniProt F1PAA9)
Test: single-molecule AFM force spectroscopy

B1: recombinant E-cadherin extracellular region, biotinylated monomer with C-terminal Avi tag (domain or fragment, UniProt F1PAA9 157-712, looked up)
chain: DWVIPPISCPENEKGPFPKNLVQIKSNRDKEIKVFYSITGQGADAPPVGVFIIERETGWLKVTEPLDREQIAKYILYSHAVSSNGNAVEDPMEIVITVTDQNDNKPEFTQAVFQGSVTEGALPGTSVMQVTATDADDDVNTYNAAIAYSILTQDPLLPSSMMFTINKDTGVISVLTTGLDREGVPMYTLVVQAADLQGEGLTTTATAVITVTDINDNPPIFNPTTYQGRVPENKANVEIAVLKVTDADVPDTPAWRAVYTILNNNNDQFVVTTDPVTNDGILKTTKGLDFEDKQQYVLYVTVVNVTPFEVILSTSTATVTVDVEDVNEAPIFIPCPKVVSIPEDFGVGQEITSYTAEDPDTYMEQRITYRIWRDAAGWLEVNPESGAIFTRAELDREDFEHVKNSTYEALIIAIDNGSPVATGTGTLLLVLSDVNDNGPIPEPRNMDFCQKNPQPHVINIIDPDLPPNTSPFTAELTHGASVNWTIEYNDPARESLILKPKKTLELGDYKINLKLTDNQNKDQVTTLDVFVCDCEGVVNSCKRTAPYAEAGLQVPA
modifications: biotin (biotinylated with BirA enzyme)
For B1, the binding was “binds”.
